Article doi:10.1101/2021.08.19.457009 (bioRxiv, 2021)
These are yes or no findings as the source states them, for the method shown. Binding seen in cells or lysates may run through a third protein. Some entries that bind do so weakly or less than the wild type.

T1: human 6His-14-3-3ζ (human, UniProt P63104 1-245)
T1 sequence (looked up): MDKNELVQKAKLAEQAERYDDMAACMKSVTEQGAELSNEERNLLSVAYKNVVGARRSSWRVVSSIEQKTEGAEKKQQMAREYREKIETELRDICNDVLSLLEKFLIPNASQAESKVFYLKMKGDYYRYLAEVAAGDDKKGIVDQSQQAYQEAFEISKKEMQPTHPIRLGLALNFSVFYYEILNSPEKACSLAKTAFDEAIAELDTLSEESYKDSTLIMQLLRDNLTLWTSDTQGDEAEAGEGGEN

B1: SNAP-TM-HCN1CT reporter CT_(598-698) (domain or fragment, UniProt O88704 598-698)
chain: LNTGVFNNQENEILKQIVKHDREMVQAIPPINYPQMTALNCTSSTTTPTSRMRTQSPPVYTATSLSHSNLHSPSPSTQTPQPSAILSPCSYTTAVCSPPIQ

Biological target: T1, human 6His-14-3-3ζ
Test: pull-down

Molecule | binding
full-length HCN1 expressed in HEK293 cells (from UniProt O88704 1-910) | binds
SNAP-TM-HCN1CT reporter CT_(598-910) (from UniProt O88704 598-910) (domain or fragment) | binds
HCN1 (endogenous, mouse retina and whole brain) (from UniProt O88704 1-910) | binds
B1 | no binding
